Experimental data reported in PubChem BioAssay AID248 (DTP/NCI, 2004).
The list is a part of this screen's results and no random one: it covers a few groups of compounds. Not every dose and run of a compound is shown. T/C is the treated group as % of the vehicle group. Some doses have a count of surviving animals in place of a T/C: the source files T/C as zero there, which appears to mark a toxic dose or a test without result, not a measured value. Some survivor counts are full or nearly so, which does not show that the dose was tolerated: the source hardly ever lists a survival T/C far under the control, and the zero likely stands for such cases as well. Counts of survivors are from the toxicity check (mostly the fifth day) where no day follows; animals may have died later. Schedules are NCI's codes, taken here to give the interval after Q, in days (D) or hours (H), and the number of doses after X. Some schedules carry Z or #; the key to these is not given. Brackets with × give the number of equal values in this list. Where survival is the endpoint, this PubChem deposit counts one and a half times the control or more as active, and values a quarter to a half above the control carry no call in these data; other NCI protocols may use other cut-offs. Some doses were run more than once; the values are given in rising order. Some structures stand for samples that the source files as different forms (salt, stereo form or complex); doses refer to the form tested. Some T/C values are marked as having no survivor count here; that says nothing about deaths at the dose. Some T/C values are followed by the survivors on the day toxicity was checked, most often the fifth; without a count or a note in brackets, all were alive then.

Test system: L1210 leukemia ip in BDF1 mice, survival T/C
Experiment: NCI In Vivo Anticancer Drug Screen. Data for tumor model L1210 Leukemia (intraperitoneal) in B6D2F1 (BDF1) mice
Conditions: T/C endpoint: mean survival time, higher T/C = longer survival
[1] = dose: 20.0 mg/kg/injection, schedule: Q01DX Z (ip), vehicle: saline

CCC(CO)Nc1c([N+](=O)[O-])cc([N+](=O)[O-])cc1[N+](=O)[O-] (centres undefined)
T/C (dose: 25.0 mg/kg/injection, schedule: Q01DX009 (ip), vehicle: acetone): 95 % of control | T/C (dose: 50.0 mg/kg/injection, schedule: Q01DX009 (ip), vehicle: acetone): 100 % of control | T/C (dose: 100.0 mg/kg/injection, schedule: Q01DX009 (ip), vehicle: acetone): 92 % of control

O[C@H](CNCCCl)[C@@H](O)CNCCCl
T/C (dose: 0.35 mg/kg/injection, schedule: Q01DX Z (ip), vehicle: saline): 110 % of control | T/C (dose: 0.38 mg/kg/injection, schedule: Q01DX Z (ip), vehicle: saline): 131 % of control | T/C (dose: 0.54 mg/kg/injection, schedule: Q01DX Z (ip), vehicle: saline): 134 % of control | T/C (dose: 0.6 mg/kg/injection, schedule: Q01DX Z (ip), vehicle: methylcellulose (MC)): 111 % of control | T/C (dose: 0.75 mg/kg/injection, schedule: Q01DX Z (ip), vehicle: saline): 125 % of control | T/C (dose: 0.8 mg/kg/injection, schedule: Q01DX Z (ip), vehicle: saline): 136 and 138 % of control | T/C (dose: 1.2 mg/kg/injection, schedule: Q01DX Z (ip), vehicle: methylcellulose (MC)): 117 % of control | T/C (dose: 1.2 mg/kg/injection, schedule: Q01DX Z (ip), vehicle: saline): 138 and 154 % of control | T/C (dose: 1.5 mg/kg/injection, schedule: Q01DX Z (ip), vehicle: saline): 142 % of control | T/C (dose: 2.3 mg/kg/injection, schedule: Q01DX Z (ip), vehicle: methylcellulose (MC)): 128 % of control | T/C (dose: 2.66 mg/kg/injection, schedule: Q01DX Z (ip), vehicle: saline): 141 and 157 % of control | T/C (dose: 3.0 mg/kg/injection, schedule: Q01DX Z (ip), vehicle: saline): 153 % of control | T/C (dose: 4.0 mg/kg/injection, schedule: Q01DX Z (ip), vehicle: saline): 148 and 186 % of control | T/C (dose: 4.5 mg/kg/injection, schedule: Q01DX Z (ip), vehicle: methylcellulose (MC)): 140 % of control | T/C (dose: 6.0 mg/kg/injection, schedule: Q01DX Z (ip), vehicle: saline): 152, 183, 194 % of control | T/C (dose: 9.0 mg/kg/injection, schedule: Q01DX Z (ip), vehicle: methylcellulose (MC)): 103 % of control [5 of 6 alive] | T/C (dose: 9.0 mg/kg/injection, schedule: Q01DX Z (ip), vehicle: saline): 123, 188, 228 % of control | T/C (dose: 13.0 mg/kg/injection, schedule: Q01DX Z (ip), vehicle: saline): 93 % of control | T/C (dose: 13.5 mg/kg/injection, schedule: Q01DX Z (ip), vehicle: saline): 148 and 235 % of control | T/C [1]: 166 % of control | survivor count [1]: 6 of 6 | T/C (dose: 30.0 mg/kg/injection, schedule: Q01DX Z (ip), vehicle: saline): 133 % of control | T/C (dose: 45.0 mg/kg/injection, schedule: Q01DX Z (ip), vehicle: saline): 100 % of control

ClCCNc1nc2ccc(Cl)cc2c2ccccc12
T/C (dose: 1.8 mg/kg/injection, schedule: Q01DX009 (ip), vehicle: Klucel (hydroxypropylcellulose) (HPC)): 93 % of control [5 of 6 alive] | T/C (dose: 3.7 mg/kg/injection, schedule: Q01DX009 (ip), vehicle: Klucel (hydroxypropylcellulose) (HPC)): 96 % of control | T/C (dose: 3.7 mg/kg/injection, schedule: Q04DX003 (ip), vehicle: Klucel (hydroxypropylcellulose) (HPC)): 102 % of control | T/C (dose: 7.5 mg/kg/injection, schedule: Q01DX009 (ip), vehicle: Klucel (hydroxypropylcellulose) (HPC)): 107 % of control | T/C (dose: 7.5 mg/kg/injection, schedule: Q04DX003 (ip), vehicle: Klucel (hydroxypropylcellulose) (HPC)): 102 % of control | T/C (dose: 15.0 mg/kg/injection, schedule: Q01DX009 (ip), vehicle: Klucel (hydroxypropylcellulose) (HPC)): 109 % of control | T/C (dose: 15.0 mg/kg/injection, schedule: Q04DX003 (ip), vehicle: Klucel (hydroxypropylcellulose) (HPC)): 102 % of control | survivor count (dose: 75.0 mg/kg/injection, schedule: Q01DX001 (ip), vehicle: carboxymethylcellulose (CMC)): 0 of 6 | survivor count (dose: 150.0 mg/kg/injection, schedule: Q01DX001 (ip), vehicle: carboxymethylcellulose (CMC)): 0 of 6 | survivor count (dose: 300.0 mg/kg/injection, schedule: Q01DX001 (ip), vehicle: carboxymethylcellulose (CMC)): 0 of 6

NC(=NCCN/C(N)=N/[N+](=O)[O-])N[N+](=O)[O-]
T/C (dose: 50.0 mg/kg/injection, schedule: Q01DX009 (ip), vehicle: saline): 104 % of control [survivor count not shown] | T/C (dose: 100.0 mg/kg/injection, schedule: Q01DX009 (ip), vehicle: saline): 96 % of control [survivor count not shown] | T/C (dose: 200.0 mg/kg/injection, schedule: Q01DX009 (ip), vehicle: saline): 98 % of control [survivor count not shown]

O=[N+]([O-])c1ccc(-c2ccccc2[N+](=O)[O-])c([N+](=O)[O-])c1
T/C (dose: 100.0 mg/kg/injection, schedule: Q01DX001 (ip), vehicle: carboxymethylcellulose (CMC)): 91 % of control | T/C (dose: 200.0 mg/kg/injection, schedule: Q01DX001 (ip), vehicle: carboxymethylcellulose (CMC)): 91 % of control | T/C (dose: 400.0 mg/kg/injection, schedule: Q01DX001 (ip), vehicle: carboxymethylcellulose (CMC)): 101 % of control

O=C(CO)Nc1ccc([As](=O)(O)O)cc1
T/C (dose: 100.0 mg/kg/injection, schedule: Q01DX009 (ip), vehicle: saline, evaluated on day 20): 96 % of control | T/C (dose: 100.0 mg/kg/injection, schedule: Q01DX009 (ip), vehicle: saline, evaluated on day 30): 97 % of control | T/C (dose: 100.0 mg/kg/injection, schedule: Q04DX003 (ip), vehicle: saline): 100 % of control | T/C (dose: 200.0 mg/kg/injection, schedule: Q01DX009 (ip), vehicle: saline, evaluated on day 20): 91 % of control | T/C (dose: 200.0 mg/kg/injection, schedule: Q01DX009 (ip), vehicle: saline, evaluated on day 30): 91 % of control | T/C (dose: 200.0 mg/kg/injection, schedule: Q04DX003 (ip), vehicle: saline): 97 % of control | T/C (dose: 400.0 mg/kg/injection, schedule: Q01DX009 (ip), vehicle: saline, evaluated on day 20): 96 % of control | T/C (dose: 400.0 mg/kg/injection, schedule: Q01DX009 (ip), vehicle: saline, evaluated on day 30): 92 % of control | T/C (dose: 400.0 mg/kg/injection, schedule: Q04DX003 (ip), vehicle: saline): 100 % of control

C=C1N2CCC(CC2)C1(OC(=O)CC)c1ccccc1 (centres undefined)
T/C (dose: 50.0 mg/kg/injection, schedule: Q01DX001 (ip), vehicle: saline): 103 % of control | T/C (dose: 100.0 mg/kg/injection, schedule: Q01DX001 (ip), vehicle: saline): 100 % of control [5 of 6 alive] | survivor count (dose: 200.0 mg/kg/injection, schedule: Q01DX001 (ip), vehicle: saline): 2 of 6

O=[As](O)(c1ccc(Cl)cc1)C1CCCCC1O (centres undefined)
T/C (dose: 25.0 mg/kg/injection, schedule: Q04DX003 (ip), vehicle: saline with Tween-80): 91 % of control | survivor count (dose: 50.0 mg/kg/injection, schedule: Q04DX003 (ip), vehicle: saline with Tween-80): 6 of 6 | survivor count (dose: 100.0 mg/kg/injection, schedule: Q04DX003 (ip), vehicle: saline with Tween-80): 0 of 6 (2×) | survivor count (dose: 200.0 mg/kg/injection, schedule: Q04DX003 (ip), vehicle: saline with Tween-80): 0 of 6 | survivor count (dose: 400.0 mg/kg/injection, schedule: Q04DX003 (ip), vehicle: saline with Tween-80): 0 of 6
